Experimental data: patent US20060257938A1, “Method of screening for drugs that block ligand binding to a lipid binding protein” (priority 2005, published 2006)

Test: Baseline fluorescence ratio Ro of probe in absence of analyte
Details: average baseline fluorescence ratio Ro of the clone probe; substitutions with respect to SEQ ID NO: 2

Row | Molecule | AvgOfRo
1 | 60L, 72A (protein, listed as Rattus norvegicus, PEPTIDE (1)...(131) wild-type rat intestinal fatty acid binding protein) AFDGTWKVDRNENYEKFMEKMGINVVKRKLGAHDNLKLTITQEGNKFTVKESSNFRNIDLVFELGVDFAYSAADGTELTGTWTMEGNKLVGKFKRVDNGKELIAVREISGNELIQTYTYEGVEAKRIFKKE | 0.24
2 | 60M, 72A (protein, listed as Rattus norvegicus, PEPTIDE (1)...(131) wild-type rat intestinal fatty acid binding protein) AFDGTWKVDRNENYEKFMEKMGINVVKRKLGAHDNLKLTITQEGNKFTVKESSNFRNIDMVFELGVDFAYSAADGTELTGTWTMEGNKLVGKFKRVDNGKELIAVREISGNELIQTYTYEGVEAKRIFKKE | 0.29
3 | 60N, 72A (protein, listed as Rattus norvegicus, PEPTIDE (1)...(131) wild-type rat intestinal fatty acid binding protein) AFDGTWKVDRNENYEKFMEKMGINVVKRKLGAHDNLKLTITQEGNKFTVKESSNFRNIDNVFELGVDFAYSAADGTELTGTWTMEGNKLVGKFKRVDNGKELIAVREISGNELIQTYTYEGVEAKRIFKKE | 0.21
4 | 60P, 72A (protein, listed as Rattus norvegicus, PEPTIDE (1)...(131) wild-type rat intestinal fatty acid binding protein) AFDGTWKVDRNENYEKFMEKMGINVVKRKLGAHDNLKLTITQEGNKFTVKESSNFRNIDPVFELGVDFAYSAADGTELTGTWTMEGNKLVGKFKRVDNGKELIAVREISGNELIQTYTYEGVEAKRIFKKE | 0.40
5 | 60Q, 72A (protein, listed as Rattus norvegicus, PEPTIDE (1)...(131) wild-type rat intestinal fatty acid binding protein) AFDGTWKVDRNENYEKFMEKMGINVVKRKLGAHDNLKLTITQEGNKFTVKESSNFRNIDQVFELGVDFAYSAADGTELTGTWTMEGNKLVGKFKRVDNGKELIAVREISGNELIQTYTYEGVEAKRIFKKE | 0.27
6 | 60R, 72A (protein, listed as Rattus norvegicus, PEPTIDE (1)...(131) wild-type rat intestinal fatty acid binding protein) AFDGTWKVDRNENYEKFMEKMGINVVKRKLGAHDNLKLTITQEGNKFTVKESSNFRNIDRVFELGVDFAYSAADGTELTGTWTMEGNKLVGKFKRVDNGKELIAVREISGNELIQTYTYEGVEAKRIFKKE | 0.27
7 | 60S, 72A (protein, listed as Rattus norvegicus, PEPTIDE (1)...(131) wild-type rat intestinal fatty acid binding protein) AFDGTWKVDRNENYEKFMEKMGINVVKRKLGAHDNLKLTITQEGNKFTVKESSNFRNIDSVFELGVDFAYSAADGTELTGTWTMEGNKLVGKFKRVDNGKELIAVREISGNELIQTYTYEGVEAKRIFKKE | 0.26
8 | 60T, 72A (protein, listed as Rattus norvegicus, PEPTIDE (1)...(131) wild-type rat intestinal fatty acid binding protein) AFDGTWKVDRNENYEKFMEKMGINVVKRKLGAHDNLKLTITQEGNKFTVKESSNFRNIDTVFELGVDFAYSAADGTELTGTWTMEGNKLVGKFKRVDNGKELIAVREISGNELIQTYTYEGVEAKRIFKKE | 0.22
9 | 60W, 72A (protein, listed as Rattus norvegicus, PEPTIDE (1)...(131) wild-type rat intestinal fatty acid binding protein) AFDGTWKVDRNENYEKFMEKMGINVVKRKLGAHDNLKLTITQEGNKFTVKESSNFRNIDWVFELGVDFAYSAADGTELTGTWTMEGNKLVGKFKRVDNGKELIAVREISGNELIQTYTYEGVEAKRIFKKE | 0.18
10 | 62A, 72A (protein, listed as Rattus norvegicus, PEPTIDE (1)...(131) wild-type rat intestinal fatty acid binding protein) AFDGTWKVDRNENYEKFMEKMGINVVKRKLGAHDNLKLTITQEGNKFTVKESSNFRNIDVVAELGVDFAYSAADGTELTGTWTMEGNKLVGKFKRVDNGKELIAVREISGNELIQTYTYEGVEAKRIFKKE | 0.27
11 | 62C, 72A (protein, listed as Rattus norvegicus, PEPTIDE (1)...(131) wild-type rat intestinal fatty acid binding protein) AFDGTWKVDRNENYEKFMEKMGINVVKRKLGAHDNLKLTITQEGNKFTVKESSNFRNIDVVCELGVDFAYSAADGTELTGTWTMEGNKLVGKFKRVDNGKELIAVREISGNELIQTYTYEGVEAKRIFKKE | 0.19
12 | 62D, 72A (protein, listed as Rattus norvegicus, PEPTIDE (1)...(131) wild-type rat intestinal fatty acid binding protein) AFDGTWKVDRNENYEKFMEKMGINVVKRKLGAHDNLKLTITQEGNKFTVKESSNFRNIDVVDELGVDFAYSAADGTELTGTWTMEGNKLVGKFKRVDNGKELIAVREISGNELIQTYTYEGVEAKRIFKKE | 0.23
13 | 62E, 72A (protein, listed as Rattus norvegicus, PEPTIDE (1)...(131) wild-type rat intestinal fatty acid binding protein) AFDGTWKVDRNENYEKFMEKMGINVVKRKLGAHDNLKLTITQEGNKFTVKESSNFRNIDVVEELGVDFAYSAADGTELTGTWTMEGNKLVGKFKRVDNGKELIAVREISGNELIQTYTYEGVEAKRIFKKE | 0.21
14 | 62G, 72A (protein, listed as Rattus norvegicus, PEPTIDE (1)...(131) wild-type rat intestinal fatty acid binding protein) AFDGTWKVDRNENYEKFMEKMGINVVKRKLGAHDNLKLTITQEGNKFTVKESSNFRNIDVVGELGVDFAYSAADGTELTGTWTMEGNKLVGKFKRVDNGKELIAVREISGNELIQTYTYEGVEAKRIFKKE | 0.22
15 | 62H, 72A (protein, listed as Rattus norvegicus, PEPTIDE (1)...(131) wild-type rat intestinal fatty acid binding protein) AFDGTWKVDRNENYEKFMEKMGINVVKRKLGAHDNLKLTITQEGNKFTVKESSNFRNIDVVHELGVDFAYSAADGTELTGTWTMEGNKLVGKFKRVDNGKELIAVREISGNELIQTYTYEGVEAKRIFKKE | 0.20
16 | 62I, 72A (protein, listed as Rattus norvegicus, PEPTIDE (1)...(131) wild-type rat intestinal fatty acid binding protein) AFDGTWKVDRNENYEKFMEKMGINVVKRKLGAHDNLKLTITQEGNKFTVKESSNFRNIDVVIELGVDFAYSAADGTELTGTWTMEGNKLVGKFKRVDNGKELIAVREISGNELIQTYTYEGVEAKRIFKKE | 0.19

Same assay, conditions: baseline fluorescence ratio of probe, no fatty acid

Row | Molecule | Ro
17 | 60L, 72A (protein, listed as Rattus norvegicus, PEPTIDE (1)...(131) wild-type rat intestinal fatty acid binding protein) AFDGTWKVDRNENYEKFMEKMGINVVKRKLGAHDNLKLTITQEGNKFTVKESSNFRNIDLVFELGVDFAYSAADGTELTGTWTMEGNKLVGKFKRVDNGKELIAVREISGNELIQTYTYEGVEAKRIFKKE | 0.236
18 | 60W, 72A (protein, listed as Rattus norvegicus, PEPTIDE (1)...(131) wild-type rat intestinal fatty acid binding protein) AFDGTWKVDRNENYEKFMEKMGINVVKRKLGAHDNLKLTITQEGNKFTVKESSNFRNIDWVFELGVDFAYSAADGTELTGTWTMEGNKLVGKFKRVDNGKELIAVREISGNELIQTYTYEGVEAKRIFKKE | 0.185
19 | 62D, 72A (protein, listed as Rattus norvegicus, PEPTIDE (1)...(131) wild-type rat intestinal fatty acid binding protein) AFDGTWKVDRNENYEKFMEKMGINVVKRKLGAHDNLKLTITQEGNKFTVKESSNFRNIDVVDELGVDFAYSAADGTELTGTWTMEGNKLVGKFKRVDNGKELIAVREISGNELIQTYTYEGVEAKRIFKKE | 0.230
